Where a name gives a salt, the structure may show the parent alone. The list shows a part of the results. The calls rarely recur for the same compound in another form.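 Kinases were expressed as nanoluciferase fusions in K562 cells and luminescence was read every 4 h between 2 and 18 h as percent of control, DMSO set to 100% and a positive control to 0%. A time point counts as decreased when the signal drops significantly (2 sigma). The hit call is the authors' own, does not follow from the count of time points alone, and its rule is not shown.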
Tests used:
Assay in all cases: kinase-Nluc reporter destabilization hit call (1 = scored as downregulated) (binary); higher = compound decreases kinase abundance
Settings in all cases: K562; 2-18 h
ERN1 = ERN1 (UniProt O75460)
FGFR1 = FGFR1 (UniProt P11362)
FGFR2 = FGFR2 (UniProt P21802)
FGFR3 = FGFR3 (UniProt P22607)
FGR = FGR (UniProt P09769)
FLT3 = FLT3 (UniProt P36888)
FYN = FYN (UniProt P06241)
GSK3A = GSK3A (UniProt P49840)
HER2 = HER2 (UniProt P04626)
INSRR = INSRR (UniProt P14616)
IRAK3 = IRAK3 (UniProt Q9Y616)
JAK1 = JAK1 (UniProt P23458)
LCK = LCK (UniProt P06239)
LIMK1 = LIMK1 (UniProt P53667)
LIMK2 = LIMK2 (UniProt P53671)
LMTK2 = LMTK2 (UniProt Q8IWU2)
LYN = LYN (UniProt P07948)
MAP2K1 = MAP2K1 (UniProt Q02750)
MAP2K2 = MAP2K2 (UniProt P36507)
MAP4K2 = MAP4K2 (UniProt Q12851)

Chains of the proteins cited; added tags and fusions are not shown. Lines headed by an entry give the natural chain unless they say otherwise; changes in a name come on top.
UniProt P21802, whole entry, looked up: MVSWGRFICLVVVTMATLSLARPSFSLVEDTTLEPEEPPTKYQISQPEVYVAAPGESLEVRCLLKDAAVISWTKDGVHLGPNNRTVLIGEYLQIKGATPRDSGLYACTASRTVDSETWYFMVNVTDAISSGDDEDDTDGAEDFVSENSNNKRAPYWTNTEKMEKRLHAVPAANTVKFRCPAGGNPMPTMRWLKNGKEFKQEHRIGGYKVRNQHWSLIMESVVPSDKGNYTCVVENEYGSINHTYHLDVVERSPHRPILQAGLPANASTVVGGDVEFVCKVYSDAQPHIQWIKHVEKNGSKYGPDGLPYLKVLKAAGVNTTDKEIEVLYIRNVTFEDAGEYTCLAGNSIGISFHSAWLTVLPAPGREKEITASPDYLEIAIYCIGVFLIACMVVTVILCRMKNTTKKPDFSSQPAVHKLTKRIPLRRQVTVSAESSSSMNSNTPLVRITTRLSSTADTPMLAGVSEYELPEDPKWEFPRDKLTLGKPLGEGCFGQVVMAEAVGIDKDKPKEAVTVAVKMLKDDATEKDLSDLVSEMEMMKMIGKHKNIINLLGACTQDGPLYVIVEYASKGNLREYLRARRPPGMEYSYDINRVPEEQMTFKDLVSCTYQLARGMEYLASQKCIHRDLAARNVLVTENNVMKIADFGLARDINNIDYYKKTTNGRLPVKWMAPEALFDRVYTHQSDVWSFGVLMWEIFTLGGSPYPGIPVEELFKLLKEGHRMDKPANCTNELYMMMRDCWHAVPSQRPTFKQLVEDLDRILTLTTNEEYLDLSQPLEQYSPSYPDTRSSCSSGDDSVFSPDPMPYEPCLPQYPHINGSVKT
UniProt P22607, whole entry, looked up: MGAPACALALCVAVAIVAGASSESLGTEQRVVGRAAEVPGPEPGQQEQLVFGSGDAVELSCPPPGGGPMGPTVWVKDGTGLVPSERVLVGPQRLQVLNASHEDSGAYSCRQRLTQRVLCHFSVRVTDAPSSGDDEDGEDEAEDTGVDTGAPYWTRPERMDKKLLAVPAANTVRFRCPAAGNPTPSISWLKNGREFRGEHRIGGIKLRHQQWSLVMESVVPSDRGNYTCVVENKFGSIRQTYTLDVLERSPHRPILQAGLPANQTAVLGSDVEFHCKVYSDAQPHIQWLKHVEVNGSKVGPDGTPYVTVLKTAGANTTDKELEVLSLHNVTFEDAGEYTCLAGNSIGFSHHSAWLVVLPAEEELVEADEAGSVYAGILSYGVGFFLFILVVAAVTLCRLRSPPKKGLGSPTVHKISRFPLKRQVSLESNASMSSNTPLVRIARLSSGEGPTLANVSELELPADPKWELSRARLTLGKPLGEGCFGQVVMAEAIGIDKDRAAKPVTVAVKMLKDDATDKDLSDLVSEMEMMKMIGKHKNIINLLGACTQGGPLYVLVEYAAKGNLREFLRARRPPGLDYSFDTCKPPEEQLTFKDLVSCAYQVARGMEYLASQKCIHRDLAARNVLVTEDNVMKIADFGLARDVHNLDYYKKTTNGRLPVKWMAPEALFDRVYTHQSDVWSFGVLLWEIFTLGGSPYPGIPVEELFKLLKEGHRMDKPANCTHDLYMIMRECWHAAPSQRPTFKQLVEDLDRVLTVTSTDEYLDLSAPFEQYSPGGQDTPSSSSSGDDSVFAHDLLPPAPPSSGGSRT
UniProt P06241, whole entry, looked up: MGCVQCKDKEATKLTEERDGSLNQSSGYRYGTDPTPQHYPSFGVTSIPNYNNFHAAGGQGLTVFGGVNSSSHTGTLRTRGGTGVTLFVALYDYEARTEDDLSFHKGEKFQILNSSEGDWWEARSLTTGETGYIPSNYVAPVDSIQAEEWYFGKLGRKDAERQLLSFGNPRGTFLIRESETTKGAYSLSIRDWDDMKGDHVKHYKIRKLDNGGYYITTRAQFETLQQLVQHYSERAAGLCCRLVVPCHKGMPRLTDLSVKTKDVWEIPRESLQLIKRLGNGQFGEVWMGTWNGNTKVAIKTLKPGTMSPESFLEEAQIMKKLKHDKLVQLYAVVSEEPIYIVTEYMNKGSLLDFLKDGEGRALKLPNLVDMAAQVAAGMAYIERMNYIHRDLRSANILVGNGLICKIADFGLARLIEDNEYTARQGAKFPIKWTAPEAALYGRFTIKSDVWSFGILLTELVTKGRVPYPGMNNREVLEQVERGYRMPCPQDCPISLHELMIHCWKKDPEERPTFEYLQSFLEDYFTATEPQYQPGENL
UniProt P49840: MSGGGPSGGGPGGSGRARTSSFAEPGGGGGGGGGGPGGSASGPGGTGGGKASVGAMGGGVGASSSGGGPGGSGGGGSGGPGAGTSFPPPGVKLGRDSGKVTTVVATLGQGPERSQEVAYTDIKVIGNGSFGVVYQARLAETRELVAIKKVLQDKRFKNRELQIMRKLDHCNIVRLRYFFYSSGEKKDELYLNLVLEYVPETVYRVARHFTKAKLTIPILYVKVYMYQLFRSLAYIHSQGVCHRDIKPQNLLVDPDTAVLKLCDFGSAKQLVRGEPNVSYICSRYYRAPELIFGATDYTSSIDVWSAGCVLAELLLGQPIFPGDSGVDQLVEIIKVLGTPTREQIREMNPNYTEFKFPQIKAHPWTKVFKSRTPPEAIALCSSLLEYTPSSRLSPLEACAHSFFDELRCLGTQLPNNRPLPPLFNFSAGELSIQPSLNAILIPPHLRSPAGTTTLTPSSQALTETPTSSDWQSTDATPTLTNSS
UniProt Q9Y616: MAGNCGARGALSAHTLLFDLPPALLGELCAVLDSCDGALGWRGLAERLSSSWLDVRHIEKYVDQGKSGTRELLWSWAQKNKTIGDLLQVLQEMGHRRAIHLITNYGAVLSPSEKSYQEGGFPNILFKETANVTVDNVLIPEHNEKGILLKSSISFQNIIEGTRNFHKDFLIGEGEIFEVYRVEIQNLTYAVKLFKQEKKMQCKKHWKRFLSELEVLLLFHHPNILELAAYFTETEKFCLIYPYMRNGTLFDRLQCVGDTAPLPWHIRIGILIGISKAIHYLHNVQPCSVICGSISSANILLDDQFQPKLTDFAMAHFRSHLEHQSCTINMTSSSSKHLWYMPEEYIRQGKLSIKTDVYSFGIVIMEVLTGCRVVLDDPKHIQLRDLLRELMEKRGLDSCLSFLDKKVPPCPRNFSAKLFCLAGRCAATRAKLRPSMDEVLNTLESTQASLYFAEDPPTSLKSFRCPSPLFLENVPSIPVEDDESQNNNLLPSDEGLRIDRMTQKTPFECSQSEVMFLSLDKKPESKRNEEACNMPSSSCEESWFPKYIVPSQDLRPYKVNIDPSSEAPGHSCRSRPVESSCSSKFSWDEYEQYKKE
UniProt P06239: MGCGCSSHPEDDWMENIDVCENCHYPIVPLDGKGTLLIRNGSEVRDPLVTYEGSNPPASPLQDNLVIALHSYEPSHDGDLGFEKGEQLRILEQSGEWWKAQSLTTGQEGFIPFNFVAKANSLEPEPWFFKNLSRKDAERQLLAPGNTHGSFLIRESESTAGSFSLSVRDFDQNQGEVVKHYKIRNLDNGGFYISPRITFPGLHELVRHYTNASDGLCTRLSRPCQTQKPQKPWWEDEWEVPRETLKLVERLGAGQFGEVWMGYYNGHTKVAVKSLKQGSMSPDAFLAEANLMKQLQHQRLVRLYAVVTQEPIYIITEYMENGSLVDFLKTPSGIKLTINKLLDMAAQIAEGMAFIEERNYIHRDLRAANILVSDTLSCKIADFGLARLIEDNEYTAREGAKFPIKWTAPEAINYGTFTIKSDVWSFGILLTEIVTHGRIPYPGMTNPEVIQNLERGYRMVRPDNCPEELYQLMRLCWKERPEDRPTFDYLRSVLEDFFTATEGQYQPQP
UniProt P53667: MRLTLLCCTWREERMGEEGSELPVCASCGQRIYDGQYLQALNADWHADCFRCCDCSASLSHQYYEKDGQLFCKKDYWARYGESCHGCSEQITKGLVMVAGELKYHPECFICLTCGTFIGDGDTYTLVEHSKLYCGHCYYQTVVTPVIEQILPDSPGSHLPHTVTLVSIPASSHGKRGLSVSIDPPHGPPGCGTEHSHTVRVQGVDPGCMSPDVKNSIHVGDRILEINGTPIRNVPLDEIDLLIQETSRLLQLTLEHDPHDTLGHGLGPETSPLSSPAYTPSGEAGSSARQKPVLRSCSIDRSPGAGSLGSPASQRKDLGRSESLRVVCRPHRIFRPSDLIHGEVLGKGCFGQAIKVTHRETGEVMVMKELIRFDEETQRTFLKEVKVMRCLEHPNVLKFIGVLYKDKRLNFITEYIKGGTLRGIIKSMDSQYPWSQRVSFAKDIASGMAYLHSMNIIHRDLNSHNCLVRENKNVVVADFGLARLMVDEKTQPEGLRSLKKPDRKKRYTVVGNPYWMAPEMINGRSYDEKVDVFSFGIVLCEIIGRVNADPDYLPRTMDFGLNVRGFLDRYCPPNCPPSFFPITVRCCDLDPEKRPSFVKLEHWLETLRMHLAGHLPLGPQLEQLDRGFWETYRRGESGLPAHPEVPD
UniProt P53671: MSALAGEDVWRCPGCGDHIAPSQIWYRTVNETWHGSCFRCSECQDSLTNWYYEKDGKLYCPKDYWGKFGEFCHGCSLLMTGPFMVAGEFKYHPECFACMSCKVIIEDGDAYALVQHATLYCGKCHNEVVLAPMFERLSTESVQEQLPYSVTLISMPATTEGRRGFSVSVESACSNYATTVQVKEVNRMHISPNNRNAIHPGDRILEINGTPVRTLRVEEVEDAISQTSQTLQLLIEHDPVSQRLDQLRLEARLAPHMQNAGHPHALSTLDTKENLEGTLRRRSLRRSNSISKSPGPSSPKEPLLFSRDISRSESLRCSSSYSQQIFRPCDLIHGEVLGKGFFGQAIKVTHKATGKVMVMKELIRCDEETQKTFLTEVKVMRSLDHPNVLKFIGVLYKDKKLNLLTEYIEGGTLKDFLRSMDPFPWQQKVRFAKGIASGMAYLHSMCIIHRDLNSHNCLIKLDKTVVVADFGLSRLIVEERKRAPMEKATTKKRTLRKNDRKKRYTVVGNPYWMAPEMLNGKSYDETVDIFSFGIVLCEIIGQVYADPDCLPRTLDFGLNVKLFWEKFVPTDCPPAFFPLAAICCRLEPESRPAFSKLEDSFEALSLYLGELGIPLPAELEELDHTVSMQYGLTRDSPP
UniProt P07948: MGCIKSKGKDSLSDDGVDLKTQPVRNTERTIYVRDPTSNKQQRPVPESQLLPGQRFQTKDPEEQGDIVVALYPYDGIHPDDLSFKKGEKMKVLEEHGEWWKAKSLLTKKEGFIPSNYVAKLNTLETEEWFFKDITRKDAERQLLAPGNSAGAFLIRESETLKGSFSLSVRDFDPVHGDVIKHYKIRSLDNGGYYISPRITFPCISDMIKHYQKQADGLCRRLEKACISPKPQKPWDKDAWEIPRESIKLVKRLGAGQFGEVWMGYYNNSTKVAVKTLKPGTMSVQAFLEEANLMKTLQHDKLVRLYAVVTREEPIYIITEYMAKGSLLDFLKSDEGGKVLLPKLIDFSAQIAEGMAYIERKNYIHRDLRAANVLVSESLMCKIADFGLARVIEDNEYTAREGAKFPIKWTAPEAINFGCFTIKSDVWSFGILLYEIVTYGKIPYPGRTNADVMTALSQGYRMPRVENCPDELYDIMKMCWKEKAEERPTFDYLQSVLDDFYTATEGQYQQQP
UniProt Q12851: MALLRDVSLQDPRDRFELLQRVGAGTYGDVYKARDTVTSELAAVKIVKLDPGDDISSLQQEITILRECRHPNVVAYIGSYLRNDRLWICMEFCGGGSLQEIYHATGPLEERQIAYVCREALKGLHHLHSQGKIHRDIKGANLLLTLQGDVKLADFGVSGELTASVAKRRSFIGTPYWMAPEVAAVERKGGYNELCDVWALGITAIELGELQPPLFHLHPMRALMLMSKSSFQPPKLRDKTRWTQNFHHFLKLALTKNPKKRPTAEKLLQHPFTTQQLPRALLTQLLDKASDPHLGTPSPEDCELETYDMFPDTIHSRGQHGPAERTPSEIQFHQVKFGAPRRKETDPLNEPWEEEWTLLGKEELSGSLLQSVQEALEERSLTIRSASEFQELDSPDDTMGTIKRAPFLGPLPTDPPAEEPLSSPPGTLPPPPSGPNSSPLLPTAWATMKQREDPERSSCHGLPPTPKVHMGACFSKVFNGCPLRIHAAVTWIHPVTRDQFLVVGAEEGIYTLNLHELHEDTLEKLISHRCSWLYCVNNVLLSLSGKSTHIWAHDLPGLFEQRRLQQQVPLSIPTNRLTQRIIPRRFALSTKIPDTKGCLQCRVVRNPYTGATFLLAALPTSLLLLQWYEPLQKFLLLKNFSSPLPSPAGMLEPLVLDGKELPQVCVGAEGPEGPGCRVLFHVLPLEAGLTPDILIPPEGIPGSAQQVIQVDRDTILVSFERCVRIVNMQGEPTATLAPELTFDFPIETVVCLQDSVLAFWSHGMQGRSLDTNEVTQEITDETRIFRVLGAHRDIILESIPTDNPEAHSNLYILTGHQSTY

Measured: kinase-Nluc reporter destabilization hit call

C[C@H](NC(=O)/C(C#N)=C/c1cccc(Br)n1)c1ccccc1 (2.5 µM)
inactive: ERN1 = 0 | FGFR1 = 0 | FGFR2 = 0 | FGFR3 = 0 | FGR 0 | FLT3 = 0 | FYN 0 | GSK3A 0 | HER2 = 0 | INSRR 0 | IRAK3 = 0 | JAK1 = 0 | LCK 0 | LIMK1 = 0 | LIMK2 = 0 | LMTK2 = 0 | LYN 0 | MAP2K1 = 0 | MAP2K2 = 0 | MAP4K2 = 0

CN1CCN(S(=O)(=O)c2ccc(-c3cnc(N)c(C(=O)Nc4cccnc4)n3)cc2)CC1 (10 µM)
inactive: ERN1 = 0 | FGFR1 = 0 | FGFR2 = 0 | FGFR3 = 0 | FGR 0 | FLT3 = 0 | FYN 0 | GSK3A 0 | HER2 = 0 | INSRR 0 | IRAK3 = 0 | JAK1 = 0 | LCK 0 | LIMK1 = 0 | LIMK2 = 0 | LMTK2 = 0 | LYN 0 | MAP2K1 = 0 | MAP2K2 = 0 | MAP4K2 = 0

C=CC(=O)N1C[C@H](Nc2ncnc3[nH]ccc23)CC[C@@H]1C [Ritlecitinib] (10 µM)
inactive: ERN1 = 0 | FGFR1 = 0 | FGFR2 = 0 | FGFR3 = 0 | FGR 0 | FLT3 = 0 | FYN 0 | GSK3A 0 | HER2 = 0 | INSRR 0 | IRAK3 = 0 | JAK1 = 0 | LCK 0 | LIMK1 = 0 | LIMK2 = 0 | LMTK2 = 0 | LYN 0 | MAP2K1 = 0 | MAP2K2 = 0 | MAP4K2 = 0

COCc1c(-c2ccc(NC(=O)Nc3cc(C(F)(F)F)ccc3F)c(F)c2)c2c(N)ncnn2c1CN1CCOCC1 (2.5 µM)
inactive: ERN1 = 0 | FGFR1 = 0 | FGFR2 = 0 | FGFR3 = 0 | FGR 0 | FLT3 = 0 | FYN 0 | GSK3A 0 | HER2 = 0 | INSRR 0 | IRAK3 = 0 | JAK1 = 0 | LCK 0 | LIMK1 = 0 | LIMK2 = 0 | LMTK2 = 0 | LYN 0 | MAP2K1 = 0 | MAP2K2 = 0 | MAP4K2 = 0

Cc1c[nH]c2nccc(Oc3c(F)cc(Nc4cc(Cl)nc(N)n4)cc3F)c12 (10 µM)
inactive: ERN1 = 0 | FGFR1 = 0 | FGFR2 = 0 | FGFR3 = 0 | FGR 0 | FLT3 = 0 | FYN 0 | GSK3A 0 | HER2 = 0 | INSRR 0 | IRAK3 = 0 | JAK1 = 0 | LCK 0 | LIMK1 = 0 | LIMK2 = 0 | LMTK2 = 0 | LYN 0 | MAP2K1 = 0 | MAP2K2 = 0 | MAP4K2 = 0

O=C(Nc1ccc(-c2ccnc(Nc3ccc(N4CCOCC4)cc3)n2)cc1)C1CCCN1 (stereo not given) (10 µM)
inactive: ERN1 = 0 | FGFR1 = 0 | FGFR2 = 0 | FGFR3 = 0 | FGR 0 | FLT3 = 0 | FYN 0 | GSK3A 0 | HER2 = 0 | INSRR 0 | IRAK3 = 0 | JAK1 = 0 | LCK 0 | LIMK1 = 0 | LIMK2 = 0 | LMTK2 = 0 | LYN 0 | MAP2K1 = 0 | MAP2K2 = 0 | MAP4K2 = 0

Looked up by compound from above (2):
CN1CCN(S(=O)(=O)c2ccc(-c3cnc(N)c(C(=O)Nc4cccnc4)n3)cc2)CC1 (10 µM)
inactive: ERN1 = 0 | FGFR1 = 0 | FGFR2 = 0 | FGFR3 = 0 | FGR 0 | FLT3 = 0 | FYN 0 | GSK3A 0 | HER2 = 0 | INSRR 0 | IRAK3 = 0 | JAK1 = 0 | LCK 0 | LIMK1 = 0 | LIMK2 = 0 | LMTK2 = 0 | LYN 0 | MAP2K1 = 0 | MAP2K2 = 0 | MAP4K2 = 0

COCc1c(-c2ccc(NC(=O)Nc3cc(C(F)(F)F)ccc3F)c(F)c2)c2c(N)ncnn2c1CN1CCOCC1 (2.5 µM)
inactive: ERN1 = 0 | FGFR1 = 0 | FGFR2 = 0 | FGFR3 = 0 | FGR 0 | FLT3 = 0 | FYN 0 | GSK3A 0 | HER2 = 0 | INSRR 0 | IRAK3 = 0 | JAK1 = 0 | LCK 0 | LIMK1 = 0 | LIMK2 = 0 | LMTK2 = 0 | LYN 0 | MAP2K1 = 0 | MAP2K2 = 0 | MAP4K2 = 0

Next results:

CCN1CCN(c2ccc(Nc3cc(N(C)C(=O)Nc4c(Cl)c(OC)cc(OC)c4Cl)ncn3)cc2)CC1 [Infigratinib] (10 µM)
inactive: ERN1 = 0 | FGFR1 = 0 | FGFR2 = 0 | FGFR3 = 0 | FGR 0 | FLT3 = 0 | FYN 0 | GSK3A 0 | HER2 = 0 | INSRR 0 | IRAK3 = 0 | JAK1 = 0 | LCK 0 | LIMK1 = 0 | LIMK2 = 0 | LMTK2 = 0 | LYN 0 | MAP2K1 = 0 | MAP2K2 = 0 | MAP4K2 = 0

FC(F)(F)c1ccc(CNc2ccc(Cc3c[nH]c4ncc(Cl)cc34)cn2)cc1 (10 µM)
inactive: ERN1 = 0 | FGFR1 = 0 | FGFR2 = 0 | FGFR3 = 0 | FGR 0 | FLT3 = 0 | FYN 0 | GSK3A 0 | HER2 = 0 | INSRR 0 | IRAK3 = 0 | JAK1 = 0 | LCK 0 | LIMK1 = 0 | LIMK2 = 0 | LMTK2 = 0 | LYN 0 | MAP2K1 = 0 | MAP2K2 = 0 | MAP4K2 = 0

COc1cc(C(=O)NC2CCN(C)CC2)c(F)cc1Nc1ncc2c(n1)N(C1CCCC1)CC(F)(F)C(=O)N2C [TAK-960 (dihydrochloride)] (2.5 µM)
inactive: ERN1 = 0 | FGFR1 = 0 | FGFR2 = 0 | FGFR3 = 0 | FGR 0 | FLT3 = 0 | FYN 0 | GSK3A 0 | HER2 = 0 | INSRR 0 | IRAK3 = 0 | JAK1 = 0 | LCK 0 | LIMK1 = 0 | LIMK2 = 0 | LMTK2 = 0 | LYN 0 | MAP2K1 = 0 | MAP2K2 = 0 | MAP4K2 = 0

O=C([O-])c1ccccc1O.[Na+] [Sodium Salicylate] (10 µM)
inactive: ERN1 = 0 | FGFR1 = 0 | FGFR2 = 0 | FGFR3 = 0 | FGR 0 | FLT3 = 0 | FYN 0 | GSK3A 0 | HER2 = 0 | INSRR 0 | IRAK3 = 0 | JAK1 = 0 | LCK 0 | LIMK1 = 0 | LIMK2 = 0 | LMTK2 = 0 | LYN 0 | MAP2K1 = 0 | MAP2K2 = 0 | MAP4K2 = 0

Cc1c(NC(=O)c2cc3c(s2)CCCC3)cccc1-c1cn(C)c(=O)c(Nc2ccc([C@@H]3C(=O)N(C)CCN3C)cc2)n1 (10 µM)
inactive: ERN1 = 0 | FGFR1 = 0 | FGFR2 = 0 | FGFR3 = 0 | FGR 0 | FLT3 = 0 | FYN 0 | GSK3A 0 | HER2 = 0 | INSRR 0 | IRAK3 = 0 | JAK1 = 0 | LCK 0 | LIMK1 = 0 | LIMK2 = 0 | LMTK2 = 0 | LYN 0 | MAP2K1 = 0 | MAP2K2 = 0 | MAP4K2 = 0

CCCCOc1c(C(=O)c2c(F)cc(C)cc2F)c[nH]c2nncc1-2 (10 µM)
inactive: ERN1 = 0 | FGFR1 = 0 | FGFR2 = 0 | FGFR3 = 0 | FGR 0 | FLT3 = 0 | FYN 0 | GSK3A 0 | HER2 = 0 | INSRR 0 | IRAK3 = 0 | JAK1 = 0 | LCK 0 | LIMK1 = 0 | LIMK2 = 0 | LMTK2 = 0 | LYN 0 | MAP2K1 = 0 | MAP2K2 = 0 | MAP4K2 = 0

C=CC(=O)N1CCC[C@@H](n2nc(-c3ccc(Oc4ccccc4)cc3)c(C(N)=O)c2N)C1 [Btk inhibitor 2] (10 µM)
inactive: ERN1 = 0 | FGFR1 = 0 | FGFR2 = 0 | FGFR3 = 0 | FGR 0 | FLT3 = 0 | FYN 0 | GSK3A 0 | HER2 = 0 | INSRR 0 | IRAK3 = 0 | JAK1 = 0 | LCK 0 | LIMK1 = 0 | LIMK2 = 0 | LMTK2 = 0 | LYN 0 | MAP2K1 = 0 | MAP2K2 = 0 | MAP4K2 = 0

CC(C)Oc1cc(Nc2nc(N[C@@H](C)c3ccc(F)cn3)ncc2Cl)n[nH]1 (10 µM)
inactive: ERN1 = 0 | FGFR1 = 0 | FGFR2 = 0 | FGFR3 = 0 | FGR 0 | FLT3 = 0 | FYN 0 | GSK3A 0 | HER2 = 0 | INSRR 0 | IRAK3 = 0 | JAK1 = 0 | LCK 0 | LIMK1 = 0 | LIMK2 = 0 | LMTK2 = 0 | LYN 0 | MAP2K1 = 0 | MAP2K2 = 0 | MAP4K2 = 0

COc1cc(F)cc([C@@H](CO)NC(=O)[C@@H](C)N2Cc3ccc(-c4nc(NC5CCOCC5)ncc4Cl)cc3C2=O)c1 [ERK1/2 inhibitor 2] (10 µM)
inactive: ERN1 = 0 | FGFR1 = 0 | FGFR2 = 0 | FGFR3 = 0 | FGR 0 | FLT3 = 0 | FYN 0 | GSK3A 0 | HER2 = 0 | INSRR 0 | IRAK3 = 0 | JAK1 = 0 | LCK 0 | LIMK1 = 0 | LIMK2 = 0 | LMTK2 = 0 | LYN 0 | MAP2K1 = 0 | MAP2K2 = 0 | MAP4K2 = 0

COc1ccc(COc2ccc(Cc3cnc(N)nc3N)cc2OC)cc1 (10 µM)
inactive: ERN1 = 0 | FGFR1 = 0 | FGFR2 = 0 | FGFR3 = 0 | FGR 0 | FLT3 = 0 | FYN 0 | GSK3A 0 | HER2 = 0 | INSRR 0 | IRAK3 = 0 | JAK1 = 0 | LCK 0 | LIMK1 = 0 | LIMK2 = 0 | LMTK2 = 0 | LYN 0 | MAP2K1 = 0 | MAP2K2 = 0 | MAP4K2 = 0

NC(=O)c1ccc2nc(-c3ccc(Oc4ccc(Cl)cc4)cc3)[nH]c2c1 (10 µM)
inactive: ERN1 = 0 | FGFR1 = 0 | FGFR2 = 0 | FGFR3 = 0 | FGR 0 | FLT3 = 0 | FYN 0 | GSK3A 0 | HER2 = 0 | INSRR 0 | IRAK3 = 0 | JAK1 = 0 | LCK 0 | LIMK1 = 0 | LIMK2 = 0 | LMTK2 = 0 | LYN 0 | MAP2K1 = 0 | MAP2K2 = 0 | MAP4K2 = 0
